Test results published in the supplement of paper PMC11732987, “Enantioselective OTUD7B fragment discovery through chemoproteomics screening and high-throughput optimisation” (Communications Chemistry, 2025).
The list shows a part of the results. The data scatter; read single values as rough.

Sequences of proteins named here, by UniProt entry; tags and fusion partners are left off. A change or cut given only in a name is not applied to a line headed by its entry.
UniProt P27448: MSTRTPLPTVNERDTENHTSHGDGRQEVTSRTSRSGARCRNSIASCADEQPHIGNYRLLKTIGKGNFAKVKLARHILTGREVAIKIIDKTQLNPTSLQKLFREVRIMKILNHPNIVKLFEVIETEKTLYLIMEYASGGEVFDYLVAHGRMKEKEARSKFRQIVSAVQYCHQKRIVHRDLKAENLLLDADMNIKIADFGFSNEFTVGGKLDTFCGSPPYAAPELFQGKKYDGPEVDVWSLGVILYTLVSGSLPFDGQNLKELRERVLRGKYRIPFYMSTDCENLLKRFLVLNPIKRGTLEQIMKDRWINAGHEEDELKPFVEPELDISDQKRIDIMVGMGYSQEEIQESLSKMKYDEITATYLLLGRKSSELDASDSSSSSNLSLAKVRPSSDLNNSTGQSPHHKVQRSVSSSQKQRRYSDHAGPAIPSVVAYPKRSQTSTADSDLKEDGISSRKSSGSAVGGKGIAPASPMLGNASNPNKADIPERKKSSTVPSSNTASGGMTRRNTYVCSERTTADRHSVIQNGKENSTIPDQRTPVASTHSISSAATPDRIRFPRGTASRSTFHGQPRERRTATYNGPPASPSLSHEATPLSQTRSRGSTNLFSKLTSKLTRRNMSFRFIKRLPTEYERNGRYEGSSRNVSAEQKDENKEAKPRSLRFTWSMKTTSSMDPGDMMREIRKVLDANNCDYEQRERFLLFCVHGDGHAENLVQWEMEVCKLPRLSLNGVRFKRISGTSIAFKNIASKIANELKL
UniProt Q13233: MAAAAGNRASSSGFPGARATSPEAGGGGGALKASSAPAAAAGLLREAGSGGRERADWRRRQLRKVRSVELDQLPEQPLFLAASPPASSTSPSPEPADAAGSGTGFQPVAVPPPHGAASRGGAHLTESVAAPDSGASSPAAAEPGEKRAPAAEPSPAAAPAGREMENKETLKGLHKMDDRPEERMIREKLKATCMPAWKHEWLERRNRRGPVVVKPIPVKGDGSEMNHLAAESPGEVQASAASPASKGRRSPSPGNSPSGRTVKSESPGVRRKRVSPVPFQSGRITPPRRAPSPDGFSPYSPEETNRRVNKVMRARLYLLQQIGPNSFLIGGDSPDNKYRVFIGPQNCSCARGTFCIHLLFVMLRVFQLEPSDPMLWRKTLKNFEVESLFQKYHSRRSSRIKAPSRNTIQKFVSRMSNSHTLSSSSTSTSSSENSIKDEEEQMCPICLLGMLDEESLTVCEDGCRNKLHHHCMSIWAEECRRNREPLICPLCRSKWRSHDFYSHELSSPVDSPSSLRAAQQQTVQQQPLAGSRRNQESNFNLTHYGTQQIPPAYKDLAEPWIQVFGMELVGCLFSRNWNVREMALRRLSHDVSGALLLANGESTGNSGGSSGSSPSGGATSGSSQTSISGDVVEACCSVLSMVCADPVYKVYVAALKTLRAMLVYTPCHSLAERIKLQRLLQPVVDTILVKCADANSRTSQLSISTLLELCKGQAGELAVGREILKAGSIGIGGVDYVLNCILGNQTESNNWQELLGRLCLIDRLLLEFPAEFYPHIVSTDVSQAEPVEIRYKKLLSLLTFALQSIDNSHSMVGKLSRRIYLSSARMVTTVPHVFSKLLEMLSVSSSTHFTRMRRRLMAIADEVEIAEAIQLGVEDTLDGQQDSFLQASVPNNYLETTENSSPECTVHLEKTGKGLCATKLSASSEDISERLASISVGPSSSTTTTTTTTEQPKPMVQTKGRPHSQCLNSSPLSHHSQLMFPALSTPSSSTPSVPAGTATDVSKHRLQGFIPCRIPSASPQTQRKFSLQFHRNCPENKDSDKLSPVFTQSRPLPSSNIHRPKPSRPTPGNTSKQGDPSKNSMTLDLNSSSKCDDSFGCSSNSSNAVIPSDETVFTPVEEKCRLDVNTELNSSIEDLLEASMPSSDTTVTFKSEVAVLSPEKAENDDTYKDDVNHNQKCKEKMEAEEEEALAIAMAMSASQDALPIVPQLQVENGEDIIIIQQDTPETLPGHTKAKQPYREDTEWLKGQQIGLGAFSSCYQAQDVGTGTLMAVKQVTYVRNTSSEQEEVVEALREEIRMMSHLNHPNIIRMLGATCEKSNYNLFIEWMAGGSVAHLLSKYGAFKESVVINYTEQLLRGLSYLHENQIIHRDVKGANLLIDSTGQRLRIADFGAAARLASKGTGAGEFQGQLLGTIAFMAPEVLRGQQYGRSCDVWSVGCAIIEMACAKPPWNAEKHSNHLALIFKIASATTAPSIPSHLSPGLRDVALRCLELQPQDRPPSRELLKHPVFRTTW
UniProt Q32MZ4: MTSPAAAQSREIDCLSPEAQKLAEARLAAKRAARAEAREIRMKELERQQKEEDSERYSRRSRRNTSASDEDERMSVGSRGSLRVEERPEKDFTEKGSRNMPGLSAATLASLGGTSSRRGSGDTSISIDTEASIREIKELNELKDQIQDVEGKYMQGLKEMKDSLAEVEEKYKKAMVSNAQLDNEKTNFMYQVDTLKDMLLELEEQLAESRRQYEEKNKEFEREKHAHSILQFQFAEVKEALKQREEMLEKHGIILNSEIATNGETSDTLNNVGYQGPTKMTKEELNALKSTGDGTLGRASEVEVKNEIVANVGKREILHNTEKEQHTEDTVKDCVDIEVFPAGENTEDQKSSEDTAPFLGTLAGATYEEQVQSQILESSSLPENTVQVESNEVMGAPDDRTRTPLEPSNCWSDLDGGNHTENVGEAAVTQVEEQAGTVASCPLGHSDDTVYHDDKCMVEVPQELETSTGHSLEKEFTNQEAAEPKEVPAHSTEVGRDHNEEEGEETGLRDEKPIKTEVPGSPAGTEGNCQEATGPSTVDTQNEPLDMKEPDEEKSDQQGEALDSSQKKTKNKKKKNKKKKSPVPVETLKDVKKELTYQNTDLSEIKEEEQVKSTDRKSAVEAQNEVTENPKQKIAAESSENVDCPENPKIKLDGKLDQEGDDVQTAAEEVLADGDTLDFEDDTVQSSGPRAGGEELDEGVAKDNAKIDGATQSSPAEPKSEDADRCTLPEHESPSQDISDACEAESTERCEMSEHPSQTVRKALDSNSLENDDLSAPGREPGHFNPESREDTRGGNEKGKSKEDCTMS
UniProt Q9NZL9, whole entry, looked up: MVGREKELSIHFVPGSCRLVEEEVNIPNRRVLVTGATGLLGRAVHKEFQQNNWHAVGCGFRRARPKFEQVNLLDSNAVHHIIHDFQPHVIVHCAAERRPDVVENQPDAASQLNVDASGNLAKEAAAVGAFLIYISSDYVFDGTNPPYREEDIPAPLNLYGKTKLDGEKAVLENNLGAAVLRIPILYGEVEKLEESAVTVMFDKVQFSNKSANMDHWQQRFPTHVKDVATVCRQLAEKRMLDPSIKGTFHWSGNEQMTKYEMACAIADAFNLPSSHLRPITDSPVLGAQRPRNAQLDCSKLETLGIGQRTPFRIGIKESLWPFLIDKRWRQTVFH
UniProt Q9P0L2: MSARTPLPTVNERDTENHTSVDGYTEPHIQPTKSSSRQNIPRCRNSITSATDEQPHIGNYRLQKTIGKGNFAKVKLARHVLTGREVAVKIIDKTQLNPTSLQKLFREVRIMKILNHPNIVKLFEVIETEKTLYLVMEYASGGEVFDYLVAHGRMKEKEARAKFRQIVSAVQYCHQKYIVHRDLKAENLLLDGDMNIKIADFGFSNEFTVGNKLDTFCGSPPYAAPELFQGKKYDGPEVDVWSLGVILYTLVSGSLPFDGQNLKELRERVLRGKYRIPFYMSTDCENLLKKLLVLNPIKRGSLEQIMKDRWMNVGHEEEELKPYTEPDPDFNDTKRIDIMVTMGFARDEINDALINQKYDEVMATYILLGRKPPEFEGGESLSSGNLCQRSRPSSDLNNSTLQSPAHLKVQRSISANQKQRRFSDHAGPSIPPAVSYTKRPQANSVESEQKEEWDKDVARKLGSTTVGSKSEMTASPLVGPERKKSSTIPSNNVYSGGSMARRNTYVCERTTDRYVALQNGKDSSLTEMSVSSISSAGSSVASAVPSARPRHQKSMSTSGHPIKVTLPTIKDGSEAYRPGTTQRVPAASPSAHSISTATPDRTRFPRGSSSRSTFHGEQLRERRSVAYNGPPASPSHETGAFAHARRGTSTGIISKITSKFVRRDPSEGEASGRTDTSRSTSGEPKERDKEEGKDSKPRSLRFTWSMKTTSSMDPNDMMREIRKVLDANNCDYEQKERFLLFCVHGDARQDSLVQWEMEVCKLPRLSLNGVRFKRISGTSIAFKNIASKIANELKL
UniProt P49736: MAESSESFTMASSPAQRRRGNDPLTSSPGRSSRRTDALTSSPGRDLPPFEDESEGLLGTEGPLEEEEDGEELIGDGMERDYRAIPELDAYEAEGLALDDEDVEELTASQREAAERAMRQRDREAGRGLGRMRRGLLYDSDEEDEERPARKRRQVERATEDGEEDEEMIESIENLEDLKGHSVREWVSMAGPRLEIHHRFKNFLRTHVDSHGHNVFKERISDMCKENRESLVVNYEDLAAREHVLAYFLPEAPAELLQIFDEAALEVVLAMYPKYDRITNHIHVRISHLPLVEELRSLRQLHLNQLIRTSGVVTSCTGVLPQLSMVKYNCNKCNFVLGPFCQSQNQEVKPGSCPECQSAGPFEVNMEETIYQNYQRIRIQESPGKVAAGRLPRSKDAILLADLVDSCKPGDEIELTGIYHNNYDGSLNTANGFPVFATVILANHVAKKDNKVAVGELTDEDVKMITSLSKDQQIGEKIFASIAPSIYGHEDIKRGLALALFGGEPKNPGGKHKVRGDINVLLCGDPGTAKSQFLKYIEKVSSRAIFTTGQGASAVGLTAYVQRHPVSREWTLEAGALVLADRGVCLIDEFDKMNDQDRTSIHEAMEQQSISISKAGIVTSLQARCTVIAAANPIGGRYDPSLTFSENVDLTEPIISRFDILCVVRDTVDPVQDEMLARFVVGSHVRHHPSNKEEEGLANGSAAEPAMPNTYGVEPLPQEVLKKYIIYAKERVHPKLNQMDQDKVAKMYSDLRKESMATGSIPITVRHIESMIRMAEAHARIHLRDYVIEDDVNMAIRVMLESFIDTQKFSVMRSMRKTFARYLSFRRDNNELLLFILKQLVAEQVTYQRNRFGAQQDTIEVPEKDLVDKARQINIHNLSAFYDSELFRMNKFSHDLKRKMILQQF
UniProt Q5TCQ9: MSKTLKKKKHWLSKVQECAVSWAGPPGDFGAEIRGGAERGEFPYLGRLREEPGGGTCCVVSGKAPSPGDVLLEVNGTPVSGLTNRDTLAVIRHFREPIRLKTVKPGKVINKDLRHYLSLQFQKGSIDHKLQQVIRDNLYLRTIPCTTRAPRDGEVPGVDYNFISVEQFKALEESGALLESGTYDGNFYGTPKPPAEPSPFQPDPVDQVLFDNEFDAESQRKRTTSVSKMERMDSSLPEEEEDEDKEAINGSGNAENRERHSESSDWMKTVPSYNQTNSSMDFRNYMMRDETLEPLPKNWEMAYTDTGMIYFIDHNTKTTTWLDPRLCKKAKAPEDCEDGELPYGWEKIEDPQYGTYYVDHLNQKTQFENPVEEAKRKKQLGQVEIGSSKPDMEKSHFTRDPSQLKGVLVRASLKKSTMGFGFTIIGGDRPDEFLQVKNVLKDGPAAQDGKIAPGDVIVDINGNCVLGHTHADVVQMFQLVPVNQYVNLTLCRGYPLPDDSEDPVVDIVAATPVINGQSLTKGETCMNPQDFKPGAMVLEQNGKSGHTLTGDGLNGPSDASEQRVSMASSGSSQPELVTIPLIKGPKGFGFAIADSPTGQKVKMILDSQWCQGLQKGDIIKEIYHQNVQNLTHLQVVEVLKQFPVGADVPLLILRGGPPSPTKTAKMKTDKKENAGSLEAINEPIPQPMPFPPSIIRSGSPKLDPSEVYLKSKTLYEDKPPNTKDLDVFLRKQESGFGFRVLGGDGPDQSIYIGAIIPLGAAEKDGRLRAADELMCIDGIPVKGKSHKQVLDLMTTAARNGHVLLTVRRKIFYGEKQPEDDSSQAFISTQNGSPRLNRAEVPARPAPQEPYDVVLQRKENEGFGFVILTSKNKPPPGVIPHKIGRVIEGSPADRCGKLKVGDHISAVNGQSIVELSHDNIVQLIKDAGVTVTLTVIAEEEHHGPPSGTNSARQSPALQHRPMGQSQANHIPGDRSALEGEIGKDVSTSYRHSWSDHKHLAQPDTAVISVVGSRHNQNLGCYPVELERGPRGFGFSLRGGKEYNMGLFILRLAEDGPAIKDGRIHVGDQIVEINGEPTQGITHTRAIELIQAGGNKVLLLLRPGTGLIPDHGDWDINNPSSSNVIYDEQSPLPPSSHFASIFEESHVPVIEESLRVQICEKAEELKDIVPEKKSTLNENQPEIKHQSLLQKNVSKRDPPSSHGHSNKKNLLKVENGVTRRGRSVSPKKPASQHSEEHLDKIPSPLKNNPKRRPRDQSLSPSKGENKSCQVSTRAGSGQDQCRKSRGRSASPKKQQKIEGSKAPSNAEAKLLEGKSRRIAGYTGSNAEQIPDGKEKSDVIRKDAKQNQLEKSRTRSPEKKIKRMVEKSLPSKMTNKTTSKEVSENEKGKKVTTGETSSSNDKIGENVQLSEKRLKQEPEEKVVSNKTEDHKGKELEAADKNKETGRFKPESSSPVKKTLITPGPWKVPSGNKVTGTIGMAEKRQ

Key:
[1] = compound: ClCC(=O)N[C@@H]1CCCc2ccccc12; experiment: log2 mean competition ratio of IA-DTB cysteine labelling (DMSO/compound) (log2 ratio); higher = stronger cysteine engagement by compound; conditions: treatment time: 4 h, cell line lysate: HEK293T
Procedure: (§1)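 IA-DTB competitive cysteine chemoproteomics in HEK293T RIPA lysate. Lysates were treated with compound 29 or 30 at 50 or 200 µM for 4 h, then IA-DTB (500 µM, 1 h), trypsin-digested, NeutrAvidin-enriched and analysed by diaPASEF. Competition ratio = intensity DMSO / intensity compound (n=4 treated, n=64 DMSO); binding: mean log2 CR ≥ 1 and p ≤ 0.05 plus QC filters. Target is the cysteine site.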

[2] = compound: ClCC(=O)N[C@H]1CCCc2ccccc12; experiment: as above; conditions: treatment time: 4 h, cell line lysate: HEK293T
Procedure: as §1

| Target | log2 mean competition ratio ([1]; 50 µM) | log2 mean competition ratio ([1]; 200 µM) | log2 mean competition ratio ([2]; 50 µM) | log2 mean competition ratio ([2]; 200 µM) |
| --- | --- | --- | --- | --- |
| MARK3 C688 (UniProt P27448) | -0.308 | -0.0816 |  |  |
| MAU2 C252 (UniProt Q9Y6X3) | 0.409 | -0.08 | 0.411 | 0.121 |
| MAP3K2 C405 (UniProt Q9Y2U5) | -0.416 | -0.387 | -0.481 | -0.306 |
| M6PR C32 (UniProt P20645) | -0.0495 | 0.183 | -0.0611 | 0.17 |
| MACF1 C986 | -0.126 | -0.0315 | -0.298 | -0.0542 |
| MAP3K1 C1488 (UniProt Q13233) | 0.236 | 0.295 | -0.251 | 0.0395 |
| LRRFIP1 C644 (UniProt Q32MZ4) | -0.141 | -0.107 | -0.0625 | -0.000731 |
| LRRFIP1 C14 (UniProt Q32MZ4) | -0.149 | -0.114 | 0.228 | 0.0389 |
| MAP3K21 C369 | -0.231 | -0.347 | -0.405 | -0.176 |
| MAP1S C975 (UniProt Q66K74) | -0.209 | -0.0352 | 0.176 | -0.0307 |
| MAT2B C297 (UniProt Q9NZL9) | -0.0228 | -0.015 | 0.0793 | 0.0889 |
| MCOLN3 C11 (UniProt Q8TDD5) | -0.238 | -0.269 | -0.354 | 0.368 |
| MCCC2 C267 (UniProt Q9HCC0) | -0.302 | 0.0631 | 0.0394 | 0.162 |
| MAPKAPK3 C203 (UniProt Q16644) | -0.123 | -0.12 | 0.478 | -0.29 |
| MARK1 C387 (UniProt Q9P0L2) | 0.155 | 0.24 | -0.316 | 0.132 |
| LSS C6 (UniProt P48449) | -0.147 | -0.0961 | 0.00614 | 0.225 |
| MACF1 C887 | -0.341 | -0.118 | 0.248 | 0.0193 |
| MASTL C317 (UniProt Q96GX5) | -0.0394 | 0.295 | 1.5 | 0.25 |
| LZTS2 C376 (UniProt Q9BRK4) | 0.164 | 0.0558 | -0.145 | 0.00481 |
| MACF1 C6646 | -0.161 | 0.0397 | -0.145 | 0.0917 |
| MCM5 C207 (UniProt P33992) | 0.00674 | 0.0448 | -0.00477 | 0.207 |
| MCM4 C162 (UniProt P33991) | 0.453 | 0.545 | 0.539 | 0.599 |

| Target | log2 mean competition ratio ([1]; 50 µM) | log2 mean competition ratio ([1]; 200 µM) | log2 mean competition ratio ([2]; 50 µM) | log2 mean competition ratio ([2]; 200 µM) |
| --- | --- | --- | --- | --- |
| MAPK14 C162 (UniProt Q16539) | -0.202 | -0.106 | -0.124 | -0.126 |
| MCMBP C287 (UniProt Q9BTE3) | -0.13 | -0.197 | 0.291 | -0.185 |
| M6PR C132 (UniProt P20645) | -0.077 | 0.624 | -0.145 | 0.264 |
| MAST3 C541 (UniProt O60307) | -0.0856 | 0.206 | -0.0287 | 0.369 |
| LSM14A C375 | -0.0257 | 0.27 | 0.218 | 0.527 |
| MCM2 C522 (UniProt P49736) | -0.26 | -0.157 | -0.284 | -0.109 |
| MCM5 C249 (UniProt P33992) | -0.038 | 0.401 | -0.397 | 0.29 |
| MAP7D3 C315 (UniProt Q8IWC1) | -0.235 | -0.0483 | 0.209 | -0.149 |
| MCM9 C106 (UniProt Q9NXL9) | -0.0561 | -0.024 | -0.173 | -0.00559 |
| MAP3K4 C326 (UniProt Q9Y6R4) | -0.0587 | 0.0635 | -0.227 | 0.231 |
| LTBP3 C289 | -0.0514 | 0.146 | -0.0394 | -0.0854 |
| MAP3K4 C998 (UniProt Q9Y6R4) | -0.398 | -0.0591 | -0.172 | -0.0715 |
| LRRC8C C165 | 0.065 | 0.0723 | -0.406 | -0.181 |
| LTN1 C595 (UniProt O94822) | -0.189 | 0.235 | -0.236 | 0.107 |
| MCM4 C328 (UniProt P33991) | -0.168 | -0.215 | 0.285 | -0.0359 |
| MAP3K20 C231 (UniProt Q9NYL2) | 0.00856 | -0.362 | 0.443 | -0.253 |
| MAGI3 C1266 (UniProt Q5TCQ9) | 0.0341 | 0.063 | 0.47 | 0.203 |
| MAP3K7 C588 (UniProt O43318) | 0.114 | 0.0953 | -0.298 | 0.143 |
| MAF C46 | -0.0728 | 0.24 | -0.0664 | 0.15 |
| LRRC42 C350 (UniProt Q9Y546) | 0.253 | 0.14 | -0.0614 | 0.12 |
| MAF1 C34 (UniProt Q9H063) | -0.0744 | 0.0607 | 0.232 | -0.0992 |

Some of the entries so far, with bars between the fields.
Target | log2 mean competition ratio ([1]; 50 µM) | log2 mean competition ratio ([1]; 200 µM) | log2 mean competition ratio ([2]; 50 µM) | log2 mean competition ratio ([2]; 200 µM)
LSS C6 (UniProt P48449) | -0.147 | -0.0961 | 0.00614 | 0.225
MACF1 C887 | -0.341 | -0.118 | 0.248 | 0.0193
